{"source": "PubChem BioAssay AID1159578 (Peter MacCallum Cancer Centre, 2015)", "test": "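siRNA pools altering how lymphatic endothelial cells close a scratch wound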 (primary screen)", "cells": "human lymphatic endothelial cells", "reagent": "siRNA pool against human genes, 40 nM", "timing": "48 h after transfection", "detection": "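Cells stained with dye and imaged after a scratch; covered wound area and nuclei counted, duplicates averaged, migration set against mock wells and turned into a robust z-score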", "direction": "migration robust z-score: higher = faster migration into the scratch; nuclei per well: higher = more cells in the well", "active means": "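Pools averaging fewer than 3300 nuclei are never called; remaining pools count as changed when migration robust z lies outside -2 to 2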", "calls": "active = migration changed; inactive = no migration change, or too few cells", "note": "This is a random part of about 18,000 reagents tested. About 1,030 of them (5.7%) count as active. 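Inactive calls also include pools with fewer than 3300 nuclei, whose migration was not assessed.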 Raw values vary from plate to plate and are shown uncorrected. Not all columns of the deposit are shown. Reagent sequences are not shown."}
{"target gene": "CSH2", "migration robust z-score": 1.46, "nuclei per well, duplicate mean": 6034, "call": "inactive"}
{"target gene": "ALOXE3", "migration robust z-score": 0.44, "nuclei per well, duplicate mean": 5183, "call": "inactive"}
{"target gene": "NEIL1", "migration robust z-score": -0.38, "nuclei per well, duplicate mean": 7374, "call": "inactive"}
{"target gene": "AADAC", "migration robust z-score": -0.7, "nuclei per well, duplicate mean": 5634, "call": "inactive"}
{"target gene": "OTOGL", "migration robust z-score": 0.48, "nuclei per well, duplicate mean": 6115, "call": "inactive"}
{"target gene": "CMSS1", "migration robust z-score": 2.73, "nuclei per well, duplicate mean": 5740, "call": "active"}
{"target gene": "SFT2D2", "migration robust z-score": -0.06, "nuclei per well, duplicate mean": 4488, "call": "inactive"}
{"target gene": "JPH2", "migration robust z-score": -1, "nuclei per well, duplicate mean": 5750, "call": "inactive"}
{"target gene": "PDE9A", "migration robust z-score": 0.86, "nuclei per well, duplicate mean": 5448, "call": "inactive"}
{"target gene": "PCDHAC2", "migration robust z-score": -1.64, "nuclei per well, duplicate mean": 5718, "call": "inactive"}
{"target gene": "FOXB2", "migration robust z-score": -1.25, "nuclei per well, duplicate mean": 6725, "call": "inactive"}

Entries above marked active, once more:
{"target gene": "CMSS1", "migration robust z-score": 2.73, "nuclei per well, duplicate mean": 5740, "call": "active"}

Continued:
{"target gene": "DMKN", "migration robust z-score": 0.16, "nuclei per well, duplicate mean": 6434, "call": "inactive"}
{"target gene": "CRY2", "migration robust z-score": -0.86, "nuclei per well, duplicate mean": 3681, "call": "inactive"}
{"target gene": "LRRC10", "migration robust z-score": 0.5, "nuclei per well, duplicate mean": 5398, "call": "inactive"}
{"target gene": "UNC5A", "migration robust z-score": 0.35, "nuclei per well, duplicate mean": 6254, "call": "inactive"}
{"target gene": "C1orf216", "migration robust z-score": -0.14, "nuclei per well, duplicate mean": 6640, "call": "inactive"}
{"target gene": "CCL17", "migration robust z-score": -0.62, "nuclei per well, duplicate mean": 4068, "call": "inactive"}
{"target gene": "BCL7B", "migration robust z-score": 0.54, "nuclei per well, duplicate mean": 5692, "call": "inactive"}
{"target gene": "NFATC1", "migration robust z-score": 0.17, "nuclei per well, duplicate mean": 6804, "call": "inactive"}
{"target gene": "ITGAX", "migration robust z-score": 0.36, "nuclei per well, duplicate mean": 5843, "call": "inactive"}
{"target gene": "C19orf25", "migration robust z-score": 0.88, "nuclei per well, duplicate mean": 6498, "call": "inactive"}
{"target gene": "TOP2A", "migration robust z-score": 1.64, "nuclei per well, duplicate mean": 3702, "call": "inactive"}
{"target gene": "C6orf15", "migration robust z-score": -1.28, "nuclei per well, duplicate mean": 5795, "call": "inactive"}
{"target gene": "LAMA1", "migration robust z-score": 2.29, "nuclei per well, duplicate mean": 6106, "call": "active"}
{"target gene": "PRG2", "migration robust z-score": 0.13, "nuclei per well, duplicate mean": 5014, "call": "inactive"}
{"target gene": "APIP", "migration robust z-score": 1.17, "nuclei per well, duplicate mean": 5657, "call": "inactive"}
{"target gene": "CIMIP7", "migration robust z-score": 0.78, "nuclei per well, duplicate mean": 6556, "call": "inactive"}
